Laboratory results from the supplement of paper PMC5949888.
Most values lie at the floor of the assay. Slopes are relative: functional sequences can read slightly below zero.

tested on: Saccharomyces cerevisiae PS128 hsf1 delta, HSF1(1-493) fusion; assay: growth estimate (transactivation domain function in HSF1 fusion, heat-shock survival) (a.u. (slope of normalised read count over time)); higher = stronger growth at 37°C, i.e. more transactivation activity; conditions: library: random library
Procedure: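 Random 60-nt DNA library encoding peptides of up to 20 aa, fused to the C-terminus of yeast HSF1 residues 1-493 (C-terminal TAD deleted) and expressed from the native HSF1 promoter on a CEN plasmid in hsf1-deleted S. cerevisiae PS128. Cells were selected at 37°C on -trp 5-FOA plates for 0, 2, 4, 6 and 8 days and amplicons were sequenced. Growth estimate is the slope of a robust linear fit of total-sum-normalised read counts (normalised to the first time point) over time, using at least 2 replicates. Sequences are classed functional (TAD activity) above a threshold of -0.13, set from stop-codon control sequences.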

| Substance | growth estimate |
| --- | --- |
| QTRYSVIASNTLPNGS | < -0.25 |
| HSIGHLTQTPVALDNILYKR | < -0.25 |
| TVKH | < -0.25 |
| TRGLGLRGHIKEGPRWKVTS | < -0.25 |
| LNDLYASRHIRSA | < -0.25 |
| INRPVGNV | < -0.25 |
| VCYGCKLSPLILLIASPA | < -0.25 |
| DTGRVLHRLGSCGASMNGEH | < -0.25 |
| DSQWPVVSPNFIVMYRAV | < -0.25 |
| TGP | < -0.25 |
| REVYMPRVRRDSVCLLAF | < -0.25 |
| GQSCPARPSPVIEF | < -0.25 |
| LRPLSLSFNEGPGLNQ | < -0.25 |
| VGLILLAGLDVRETYGYIWI | < -0.25 |
| IVSTAKGFAGLPRLTEVMEP | -0.243 |
| FGFELQKTCRQILVHMTETS | < -0.25 |
| LVM | < -0.25 |
| NTPNSLARFTVQCGGSPPVR | < -0.25 |
| FRRHIN | < -0.25 |
| DVC | < -0.25 |
| LAGSQRSTISSPSIPYI | < -0.25 |
| FHVNEFAVDLVRDY | < -0.25 |
| ADGDTFYVETSVSLPVHNRT | < -0.25 |

| Substance | growth estimate |
| --- | --- |
| RFRCRKGHRQAFTVPRLASD | < -0.25 |
| KDAILCRRQSWSGLAPSYTV | < -0.25 |
| ARDLISTIMLSLE | < -0.25 |
| DRTRTDGTVGILENVVKSLG | < -0.25 |
| FDEGVHTGSTGRLVVLHVYG | < -0.25 |
| KMTIRY | < -0.25 |
| RVVSRIGLISSRDRLFLGWE | < -0.25 |
| PTPHRCSATCPGGGS | < -0.25 |
| QPTQWALLDLSQ | < -0.25 |
| ETFRGYVKGLTSIGARRDIC | < -0.25 |
| IGAWSVIQELFPHLVVGDPN | < -0.25 |
| QGASALCTSIGDKFASSV | < -0.25 |
| GPERSTGNAKSRTH | < -0.25 |
| DSRASYVGHVDRRLLIRWGP | < -0.25 |
| VRSHSLSYAVRQSPQCGSSA | < -0.25 |
| SGRQGRESSLYLEVNTKRTS | < -0.25 |
| KGTVLYIEATGRSWGCAVSA | < -0.25 |
| RVFERPQQFCSARLTHLPAC | < -0.25 |
| VAPGTTYPIPSSDTLLRGDS | < -0.25 |
| LPVGVSEGSPILTSLYRPGV | -0.245 |
| TLNPLATGFSFQ | < -0.25 |
| SFGTVP | < -0.25 |
| TGGRLCCARRFFGPGAFWAM | < -0.25 |

An excerpt of these results, tab-delimited.
Substance	growth estimate
FDEGVHTGSTGRLVVLHVYG	< -0.25
KMTIRY	< -0.25
RVVSRIGLISSRDRLFLGWE	< -0.25
PTPHRCSATCPGGGS	< -0.25
QPTQWALLDLSQ	< -0.25

Next part:

| Substance | growth estimate |
| --- | --- |
| RHGRKSPRWKN | < -0.25 |
| KGPRSDIGAH | < -0.25 |
| TRYI | < -0.25 |
| NVLLRCARTSVYLYNTLLPI | < -0.25 |
| TVGYSGWSEPSRYFPTE | < -0.25 |
| LSNSRYSL | < -0.25 |
| SALRCRGRTTKPHASLIPSI | < -0.25 |
| SWLGRNPTYSLRIAMTDRVS | < -0.25 |
| LDHATPNALERGYRAQGSPY | < -0.25 |
| TFDQSGGFECSRRSLEIRRP | < -0.25 |
| VGSI | < -0.25 |
| TQF | < -0.25 |
| ESYFSTNGNIFMFTA | < -0.25 |
| KIYAWIAKKEVRDWAEVAPR | < -0.25 |
| LQGVGRTWVLLRQHWWYPRE | < -0.25 |
| NRVASVVGAATVTNQSSMRP | < -0.25 |
| LQNAFGGSTGHKGAVSPC | < -0.25 |
| WVLTGQMTCNIGWESTTMRV | < -0.25 |
| SIGPVICISSSFNYQSIHTT | < -0.25 |
| LGREVSYVVAKGSILLEVAS | < -0.25 |
| LLY | < -0.25 |
| HSHDRVTRVS | < -0.25 |
| SCGNANEKRLTRGRNGPGPH | < -0.25 |

| Substance | growth estimate |
| --- | --- |
| SPLPAP | < -0.25 |
| VRGSLSKAERGPLTGI | < -0.25 |
| APSRIYVTLHVRTRRRFVNR | < -0.25 |
| WRCASFRVNHARTSLGEFRE | < -0.25 |
| TSIVRYSKWTRPRAI | < -0.25 |
| LCSWTGGNISDLSGGELSFS | -0.227 |
| EIGVGRDKFLGGG | < -0.25 |
| RPFR | < -0.25 |
| GRVTRQDPCDVHLRK | < -0.25 |
| WRMAELGGSPDRLVTCSDYS | -0.228 |
| VTETCDNPRMLIEQVKGLMA | < -0.25 |
| SPDCLFVLGYVSRCIVAG | < -0.25 |
| GWPQSVSIGAPSALIRV | < -0.25 |
| ERAGSEGRQINRGRECLSGT | < -0.25 |
| AVVGYRVLTPSRGNLGANVY | < -0.25 |
| YSVVIPYAAKIR | -0.246 |
| PVWTRHTH | < -0.25 |
| VYCSTLEARARSSSTSQLPD | < -0.25 |
| TTFTEILAHRRHCTMEQSNT | < -0.25 |
| YTLSSELNYINHVYPGSESA | -0.193 |
| PERLSRVGSSSATALSESSG | < -0.25 |
| KFPQSD | < -0.25 |
| VRKEWRAWTAYRVRSTGPWL | < -0.25 |

| Substance | growth estimate |
| --- | --- |
| ATSAKGGQWSMWYTRTMSGG | < -0.25 |
| QAFEVMELGQPRQLTNGFTT | < -0.25 |
| ESRRVD | < -0.25 |
| YPLWDGVGGACGRMRD | < -0.25 |
| FSLPVWFFGVVVCLAIPLVL | < -0.25 |
| SKGSAWLIREALRTRPLPVG | < -0.25 |
| NRNRFRCSRYRLTPSSQVVP | < -0.25 |
| IVLAFSKGRGYQPNGVKSGP | < -0.25 |
| TGRICHNVHSKHTEINNLIS | < -0.25 |
| PNIFCIGTGAFPRRGGPTLR | < -0.25 |
| LNPSSDRHPFLCARTHSATV | < -0.25 |
| YIVLSIATVS | -0.246 |
| RYNFQSG | < -0.25 |
| EFQRPVVLRMGTSRVHKSVS | < -0.25 |
| FVAYR | < -0.25 |
| LGRRIATIWGQNTIRP | < -0.25 |
| STALNPVA | < -0.25 |
| III | < -0.25 |
| PIGNV | -0.247 |
| LWSWNVAWNSVSVK | < -0.25 |
| NDRLCRAESPRSEQEFSGKR | < -0.25 |
| ALVTKRREVLGACVSGSTAR | < -0.25 |
| FVTVATTRWRESPCCDF | < -0.25 |

| Substance | growth estimate |
| --- | --- |
| VFPESASKYCINIARINLGR | < -0.25 |
| LCTGKHRGAIIDNLVVRNVG | < -0.25 |
| PLVRARVTRPSSLYGSSRRS | < -0.25 |
| GSDMEADGSLI | < -0.25 |
| RIADFSPRLGGGGIVPGHDS | < -0.25 |
| REQPAGR | < -0.25 |
| SGVSRWLPCPGGIFQMFRNA | < -0.25 |
| LALGADLAGIF | -0.245 |
| WLTPAHE | < -0.25 |
| AKLLS | < -0.25 |
| GIYNLRTRVQACVPWSRHRS | < -0.25 |
| ANNLVKVRSQYPLNRALFGG | < -0.25 |
| VMFQPWQSPNFLRPFA | < -0.25 |
| VSIASAALVQYRQGYGRWVV | < -0.25 |
| RSVIISSPGEGRESAYFPRI | < -0.25 |
| FAFGVLFPHP | < -0.25 |
| CTTRARDV | < -0.25 |
| GWPMLWIARS | < -0.25 |
| LRGYHYGSTGSRYAPALGGS | < -0.25 |
| STYALAQQVGGTGPHQWIIW | < -0.25 |
| LLGNSASSVIMQVGHASRAA | < -0.25 |
| RKRCSAGEVRLDGQSHRPPD | < -0.25 |
| LSWLLP | < -0.25 |

| Substance | growth estimate |
| --- | --- |
| YAGDLFPFLERGIGVTFASL | < -0.25 |
| SRRRSWSRKSSKLRKPNCGM | -0.246 |
| EPWLSHPTIPCTWRKDWSI | 2.38 |
| AHSIHESNAASNALASLLVY | < -0.25 |
| GELGDMAPTRVCGEWNVVAT | < -0.25 |
| FRQLINVYDVDFCQN | < -0.25 |
| VRPLGAVRFYIPKPKGRGSL | < -0.25 |
| FPASEDRTCPDNMLIESGSA | < -0.25 |
| RINTGGVATGAITKWWPSAP | < -0.25 |
| FGQWRGSGGLRALSPATST | < -0.25 |
| VWVGSARYATRHQPPKTPCL | < -0.25 |
| RTDIVTAGKRTIRSRYSCSQ | < -0.25 |
| PSEISDGRVTVNPRHSLIIG | < -0.25 |
| GKVLVTELGTLWII | < -0.25 |
| ACFVKVGEDEPNAAA | < -0.25 |
| LDIAFLATGTAENCGCPHQI | < -0.25 |
| KKWIR | < -0.25 |
| IADRKQDWDQGVGLESRRGP | < -0.25 |
| WKVEMIT | < -0.25 |
| IMRARRSRFQEI | -0.246 |
| TPWNCIRRTPRSCDQRLGFG | < -0.25 |
| IAWASLCPGVRTSLGALTPL | < -0.25 |
| RRLG | < -0.25 |

| Substance | growth estimate |
| --- | --- |
| LRPSTMAACSEYAYSRYLGR | < -0.25 |
| CNTNPQSTSVRLSGTGRRFT | < -0.25 |
| PRLQDLPPSFTGFYTDLGCD | -0.151 |
| KYKIPPLSASISDSMR | < -0.25 |
| ESLEGRKRSVRSEVITTLGR | < -0.25 |
| VAPSMPH | < -0.25 |
| DELYKVQRSHVT | < -0.25 |
| IGLHCDPQQSTSDAGRLNLR | < -0.25 |
| QGFRNHWVRRGNLYVK | < -0.25 |
| AYGGNYSKEGFS | -0.237 |
| PQFRYSANVCEYSN | 2.33 |
| FLPGQEVRLAVLICISGGYR | < -0.25 |
| DCLMNPYAYDLVGGSPSEDI | < -0.25 |
| LNMGVGFQSKGSLSCARRLV | < -0.25 |
| ERGDFER | < -0.25 |
| NVLQNSVQPLSEGHRSEYPH | < -0.25 |
| TVGLYIARVHE | < -0.25 |
| PLDGD | < -0.25 |
| HWGRITGTRVVEWRIYNLLN | < -0.25 |
| ATGVATLSTGAIGRGSAIAA | < -0.25 |
| ERDSVSVYIAFGTHEKSIKY | < -0.25 |
| KLLKGAWKDIDEARQSEARQ | < -0.25 |
| LYVRIYTHVHAVPRRSFSWA | < -0.25 |

Taken from above:
For growth estimate, DELYKVQRSHVT is listed with < -0.25
For growth estimate, LYVRIYTHVHAVPRRSFSWA is listed with < -0.25
For growth estimate, ESLEGRKRSVRSEVITTLGR is listed with < -0.25

2 entries drawn at random from the list so far:

| Substance | growth estimate |
| --- | --- |
| ESRRVD | < -0.25 |
| GRVTRQDPCDVHLRK | < -0.25 |
